{"source": "PubChem BioAssay AID248", "about": "(DTP/NCI, 2004)", "system": "L1210 leukemia ip in BDF1 mice, survival T/C", "test": "NCI In Vivo Anticancer Drug Screen. Data for tumor model L1210 Leukemia (intraperitoneal) in B6D2F1 (BDF1) mice", "conditions": "T/C endpoint: mean survival time, higher T/C = longer survival", "key": {"[1]": {"conditions": "dose: 150.0 mg/kg/injection, schedule: Q01DX001 (ip), vehicle: saline"}, "[2]": {"conditions": "dose: 300.0 mg/kg/injection, schedule: Q01DX001 (ip), vehicle: saline"}, "[3]": {"conditions": "dose: 400.0 mg/kg/injection, schedule: Q04DX003 (ip), vehicle: Klucel (hydroxypropylcellulose) (HPC)"}, "[4]": {"conditions": "dose: 100.0 mg/kg/injection, schedule: Q01DX009 (ip), vehicle: saline"}, "[5]": {"conditions": "dose: 200.0 mg/kg/injection, schedule: Q04DX003 (ip), vehicle: saline"}, "[6]": {"conditions": "dose: 400.0 mg/kg/injection, schedule: Q04DX003 (ip), vehicle: saline"}, "[7]": {"conditions": "dose: 400.0 mg/kg/injection, schedule: Q01DX001 (ip), vehicle: saline"}, "[8]": {"conditions": "dose: 300.0 mg/kg/injection, schedule: Q01DX001 (ip), vehicle: other"}, "[9]": {"conditions": "dose: 200.0 mg/kg/injection, schedule: Q01DX009 (ip), vehicle: saline"}}, "note": "The list is a part of this screen's results and no random one: it gathers tests that were run many times, whatever their T/C, doses with no T/C, and many T/C values between a quarter and a half above the control. Other doses and runs of a compound stand elsewhere. T/C: endpoint of the treated group in % of that of the vehicle group. Some doses have a count of surviving animals in place of a T/C: the source holds a T/C of zero for them, seemingly a mark for toxic or unscored doses. Some doses without a T/C left all or most animals alive at the check, yet need not have been tolerated: survival well below the control is almost never listed, so the zero probably covers shortened survival too. Survivors were counted at the toxicity check, usually on the fifth day, unless a day is given; later deaths do not show. Schedules are NCI's codes, taken here to give the interval after Q, in days (D) or hours (H), and the number of doses after X. Some doses were run more than once; the values are given in rising order. Some schedules carry Z or #; the key to these is not given. Some molecules as drawn cover several salts, stereoisomers or complexes of the source; a dose is that of the sample tested. For survival time, this PubChem deposit counts one and a half times the control or more as active, and values a quarter to a half above the control carry no call in these data; other NCI protocols may use other cut-offs. Some T/C values carry the count of animals alive at the toxicity check (mostly the fifth day); without a count, all were alive then.", "data": [{"smiles": "Cc1cccc(N2C(N)=NC(N)=NC2(C)C)c1", "values": [{"measurement": "survivor count", "setting": "dose: 100.0 mg/kg/injection, schedule: Q04DX003 (ip), vehicle: Klucel (hydroxypropylcellulose) (HPC)", "result": "2 of 6 and 5 of 6"}, {"measurement": "survivor count", "setting": "[1]", "result": "0 of 6"}, {"measurement": "survivor count", "setting": "dose: 200.0 mg/kg/injection, schedule: Q04DX003 (ip), vehicle: Klucel (hydroxypropylcellulose) (HPC)", "result": "0 of 6"}, {"measurement": "survivor count", "setting": "[2]", "result": "1 of 6"}, {"measurement": "survivor count", "setting": "[3]", "result": "0 of 6"}]}, {"smiles": "CC(C)C([NH-])=O.CC(C)C([NH-])=O.[Cl][Pt+2][Cl]", "values": [{"measurement": "survivor count", "setting": "[4]", "result": "0 of 6"}, {"measurement": "survivor count", "setting": "[5]", "result": "0 of 6"}, {"measurement": "survivor count", "setting": "[6]", "result": "0 of 6"}]}, {"smiles": "COc1ccc2c(c1)sc(=N)n2C", "values": [{"measurement": "survivor count", "setting": "dose: 400.0 mg/kg/injection, schedule: Q04DX002 (ip), vehicle: saline", "result": "1 of 3"}]}, {"smiles": "CC(=O)OC1CCCC(OCC(C)C)O1", "note": "(centres undefined)", "values": [{"measurement": "survivor count", "setting": "dose: 26.6 mg/kg/injection, schedule: Q01DX Z (ip), vehicle: saline", "result": "6 of 6"}]}, {"smiles": "C[n+]1ccc(C(=O)O)c2ccccc21", "values": [{"measurement": "survivor count", "setting": "dose: 300.0 mg/kg/injection, schedule: Q04DX003 (ip), vehicle: acetone", "result": "1 of 6"}]}, {"smiles": "CNC1(c2ccccc2)C(=O)CC2CCC1C2", "note": "(centres undefined)", "values": [{"measurement": "survivor count", "setting": "[5]", "result": "1 of 6"}, {"measurement": "survivor count", "setting": "[7]", "result": "0 of 6"}]}, {"smiles": "CC12CCCCC1C=CC(=O)C2", "note": "(centres undefined)", "values": [{"measurement": "survivor count", "setting": "[8]", "result": "1 of 6"}]}, {"smiles": "N#CC1(C#N)CC=CCC1(C#N)C#N", "values": [{"measurement": "survivor count", "setting": "dose: 50.0 mg/kg/injection, schedule: Q01DX009 (ip), vehicle: other", "result": "4 of 6"}, {"measurement": "survivor count", "setting": "dose: 100.0 mg/kg/injection, schedule: Q01DX009 (ip), vehicle: other", "result": "0 of 6"}, {"measurement": "survivor count", "setting": "dose: 200.0 mg/kg/injection, schedule: Q01DX009 (ip), vehicle: other", "result": "0 of 6"}, {"measurement": "survivor count", "setting": "dose: 400.0 mg/kg/injection, schedule: Q01DX009 (ip), vehicle: other", "result": "0 of 6"}]}, {"smiles": "COCCCNCCCN1CC1", "values": [{"measurement": "T/C", "setting": "dose: 31.25 mg/kg/injection, schedule: Q01DX009 (ip), vehicle: saline", "result": "134 % of control"}, {"measurement": "T/C", "setting": "dose: 75.0 mg/kg/injection, schedule: Q04DX003 (ip), vehicle: saline", "result": "125 % of control"}, {"measurement": "survivor count", "setting": "dose: 125.0 mg/kg/injection, schedule: Q01DX009 (ip), vehicle: saline", "result": "2 of 6"}, {"measurement": "T/C", "setting": "dose: 125.0 mg/kg/injection, schedule: Q04DX003 (ip), vehicle: saline", "result": "129 % of control [4 of 6 alive]"}, {"measurement": "survivor count", "setting": "dose: 150.0 mg/kg/injection, schedule: Q04DX003 (ip), vehicle: saline", "result": "3 of 6"}, {"measurement": "survivor count", "setting": "dose: 250.0 mg/kg/injection, schedule: Q01DX009 (ip), vehicle: saline", "result": "0 of 6"}, {"measurement": "survivor count", "setting": "dose: 300.0 mg/kg/injection, schedule: Q04DX003 (ip), vehicle: saline", "result": "0 of 6"}]}, {"smiles": "Nc1ncnc2c1c(C1=NCCCN1)cn2C1OC(CO)C(O)C1O", "note": "(centres undefined)", "values": [{"measurement": "T/C", "setting": "dose: 25.0 mg/kg/injection, schedule: Q01DX005 (ip), vehicle: saline", "result": "127, 127 [5 of 6 alive], 136 % of control [5 of 6 alive]"}, {"measurement": "T/C", "setting": "dose: 50.0 mg/kg/injection, schedule: Q01DX005 (ip), vehicle: saline", "result": "127 and 133 % of control [4 of 6 alive]"}, {"measurement": "T/C", "setting": "dose: 100.0 mg/kg/injection, schedule: Q01DX005 (ip), vehicle: saline", "result": "135 % of control"}, {"measurement": "T/C", "setting": "dose: 200.0 mg/kg/injection, schedule: Q01DX005 (ip), vehicle: saline", "result": "127 % of control [5 of 6 alive]"}]}, {"smiles": "CCCn1cnc2c(=S)nc[nH]c21", "values": [{"measurement": "T/C", "setting": "dose: 100.0 mg/kg/injection, schedule: Q01DX Z (ip), vehicle: carboxymethylcellulose (CMC)", "result": "135 % of control"}]}, {"smiles": "CS(=O)(=O)OCCNCCOS(C)(=O)=O", "values": [{"measurement": "survivor count", "setting": "[1]", "result": "6 of 6"}, {"measurement": "survivor count", "setting": "[2]", "result": "2 of 6"}]}, {"smiles": "COc1ccc([P+](Cc2ccccc2)(c2ccccc2)c2ccc3ccccc3c2)cc1", "note": "(centres undefined)", "values": [{"measurement": "survivor count", "setting": "dose: 300.0 mg/kg/injection, schedule: Q01DX001 (ip), vehicle: carboxymethylcellulose (CMC)", "result": "0 of 6"}]}, {"smiles": "O=C(CF)NC1C(O)OC(CO)C(O)C1O", "note": "(centres undefined)", "values": [{"measurement": "survivor count", "setting": "dose: 100.0 mg/kg/injection, schedule: Q04DX003 (ip), vehicle: saline", "result": "6 of 6"}, {"measurement": "survivor count", "setting": "[5]", "result": "0 of 6"}]}, {"smiles": "CC1=CC(=O)C2(C)C(C)=C(C)C12C", "note": "(centres undefined)", "values": [{"measurement": "survivor count", "setting": "dose: 200.0 mg/kg/injection, schedule: Q04DX003 (ip), vehicle: saline with Tween-80", "result": "6 of 6"}]}, {"smiles": "CCSc1n[nH]c(=O)nc1NN", "values": [{"measurement": "survivor count", "setting": "dose: 75.0 mg/kg/injection, schedule: Q01DX001 (ip), vehicle: saline", "result": "0 of 6"}, {"measurement": "survivor count", "setting": "[1]", "result": "0 of 6"}, {"measurement": "survivor count", "setting": "[2]", "result": "0 of 6"}]}, {"smiles": "CN(C)C1CCc2ccc3ccccc3c2C1=O", "note": "(centres undefined)", "values": [{"measurement": "survivor count", "setting": "[4]", "result": "0 of 3"}, {"measurement": "survivor count", "setting": "[9]", "result": "0 of 3"}]}, {"smiles": "N=C(N)c1cccc(CCCCc2ccc(N)cc2)c1", "values": [{"measurement": "survivor count", "setting": "[3]", "result": "0 of 6"}]}, {"smiles": "Cc1coc(NS(=O)(=O)c2ccc(N=Nc3ccc(O)c4ncccc34)cc2)c1C", "values": [{"measurement": "survivor count", "setting": "[7]", "result": "3 of 6"}]}, {"smiles": "N#CC(Cc1ccccc1)c1ccccc1", "note": "(centres undefined)", "values": [{"measurement": "survivor count", "setting": "[7]", "result": "1 of 4"}]}, {"smiles": "CCN(CC)CCOC(=O)/C=C/c1ccc([N+](=O)[O-])o1", "values": [{"measurement": "survivor count", "setting": "dose: 170.0 mg/kg/injection, schedule: Q01DX Z (ip), vehicle: saline", "result": "3 of 6"}]}, {"smiles": "CCc1ccccc1NC(=O)Sc1ccccc1O", "values": [{"measurement": "survivor count", "setting": "dose: 50.0 mg/kg/injection, schedule: Q01DX009 (ip), vehicle: saline with Tween-80", "result": "3 of 6"}, {"measurement": "survivor count", "setting": "dose: 100.0 mg/kg/injection, schedule: Q01DX009 (ip), vehicle: saline with Tween-80", "result": "5 of 6 and 6 of 6"}, {"measurement": "survivor count", "setting": "dose: 200.0 mg/kg/injection, schedule: Q01DX009 (ip), vehicle: saline with Tween-80", "result": "4 of 6"}, {"measurement": "survivor count", "setting": "dose: 400.0 mg/kg/injection, schedule: Q01DX009 (ip), vehicle: saline with Tween-80", "result": "0 of 6"}]}, {"smiles": "CCCCCCCCCCCCCCCC[N+]1(C)CCN(SN2CC[N+](C)(CCCCCCCCCCCCCCCC)CC2)CC1", "values": [{"measurement": "survivor count", "setting": "[4]", "result": "0 of 6"}, {"measurement": "survivor count", "setting": "[5]", "result": "6 of 6"}, {"measurement": "survivor count", "setting": "[6]", "result": "5 of 6"}]}, {"smiles": "CC(C)NC(=S)Nc1ccccc1", "values": [{"measurement": "survivor count", "setting": "dose: 150.0 mg/kg/injection, schedule: Q01DX001 (ip), vehicle: other", "result": "3 of 6"}, {"measurement": "survivor count", "setting": "[8]", "result": "0 of 6"}]}, {"smiles": "CCCCS(=O)c1nc2ccccc2s1", "note": "(centres undefined)", "values": [{"measurement": "survivor count", "setting": "dose: 400.0 mg/kg/injection, schedule: Q04DX002 (ip), vehicle: other", "result": "1 of 3"}]}, {"smiles": "CN(/N=C/C(O)C(O)C(O)CO)c1ccccc1", "note": "(centres undefined)", "values": [{"measurement": "survivor count", "setting": "dose: 400.0 mg/kg/injection, schedule: Q01DX009 (ip), vehicle: saline", "result": "6 of 6"}]}, {"smiles": "COc1ccc(N=C(N)NC#N)cc1", "values": [{"measurement": "survivor count", "setting": "dose: 400.0 mg/kg/injection, schedule: Q01DX009 (ip), vehicle: Klucel (hydroxypropylcellulose) (HPC)", "result": "6 of 6"}]}, {"smiles": "CCCCSC(=N)N", "values": [{"measurement": "survivor count", "setting": "dose: 200.0 mg/kg/injection, schedule: Q01DX001 (ip), vehicle: saline", "result": "0 of 6"}, {"measurement": "survivor count", "setting": "[7]", "result": "0 of 6"}]}, {"smiles": "CC1NC1(c1ccccc1)[n+]1ccccc1", "note": "(centres undefined)", "values": [{"measurement": "survivor count", "setting": "[9]", "result": "0 of 6"}, {"measurement": "survivor count", "setting": "[6]", "result": "0 of 6"}]}, {"smiles": "CN(C)c1ccc(/C=C\\c2ccnc3ccccc23)cc1", "values": [{"measurement": "survivor count", "setting": "dose: 16.0 mg/kg/injection, schedule: Q01DX Z (ip), vehicle: methylcellulose (MC)", "result": "6 of 6"}, {"measurement": "survivor count", "setting": "dose: 24.0 mg/kg/injection, schedule: Q01DX Z (ip), vehicle: methylcellulose (MC)", "result": "6 of 6"}, {"measurement": "survivor count", "setting": "dose: 36.0 mg/kg/injection, schedule: Q01DX Z (ip), vehicle: methylcellulose (MC)", "result": "6 of 6"}]}]}
